Source: PubChem BioAssay AID1259405 (NCATS, 2018)

Purpose: 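Mouse-designed siRNAs used to find CHO productivity engineering targets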 (primary screen)
Cells: Chinese hamster CHO-K1 ovary cells with stable secreted eGFP expression
Knock-down reagent: single siRNA against mouse genes, 0.8 pmol siRNA per well (2 µl of 400 nM stock)
Timing: 3 days
Read-out: 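Percent of the per-plate non-targeting control median for intracellular GFP per well by laser scanning cytometry and for cell viability by ATP luminescence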
Scale: GFP, % of control: higher = more GFP per well, higher productivity; viability (ATP), % of control: higher = more viable cells (more ATP)
Call rule: 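Called active when intracellular GFP, relative to negative control, is at or above 120%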
The whole screen tested about 50,000 reagents; shown is an unselected part. About 4,000 of them (8%) were called active. 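Mouse siRNA library applied to hamster cells; one well for each siRNA.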 The numbers tell different reagents against one gene apart.

| target | reagent no. | GFP, % of control | viability (ATP), % of control | Outcome |
| --- | --- | --- | --- | --- |
| Ash2l | 1 | 69.3 | 65.7 | inactive |
| Ash2l | 2 | 78.1 | 69.5 | inactive |
| Bmp10 | 1 | 85.7 | 61.8 | inactive |
| Bmp10 | 2 | 28.8 | 18.6 | inactive |
| Bmp10 | 3 | 67.7 | 58.6 | inactive |
| Abcb10 | 1 | 134 | 120 | active |
| Abcb10 | 2 | 24.8 | 51.9 | inactive |
| Abcb10 | 3 | 127 | 72.2 | active |
| Gab3 | 1 | 72 | 77.9 | inactive |
| Gab3 | 2 | 68 | 75.7 | inactive |
| Gab3 | 3 | 189 | 132 | active |
| Ifi27 | 1 | 123 | 77.3 | active |
| Ifi27 | 2 | 103 | 79.1 | inactive |
| Ifi27 | 3 | 118 | 128 | inactive |
| Ablim2 | 1 | 68.1 | 56.4 | inactive |
| Ablim2 | 2 | 65.1 | 72.4 | inactive |
| Ablim2 | 3 | 99.4 | 58.8 | inactive |
| Limd1 | 1 | 64.9 | 75.8 | inactive |
| Limd1 | 2 | 201 | 144 | active |
| Map1lc3a | 1 | 67.4 | 75.3 | inactive |
| Map1lc3a | 2 | 70.9 | 62.5 | inactive |
| Map1lc3a | 3 | 139 | 71.5 | active |
| Prkab2 | 1 | 63.2 | 61.7 | inactive |
| Prkab2 | 2 | 82.2 | 91.5 | inactive |
| Cant1 | 1 | 100 | 116 | inactive |
| Cant1 | 2 | 56.9 | 68.2 | inactive |
| Cant1 | 3 | 69 | 67.9 | inactive |

7 of these entries, set out differently.
target | reagent no. | GFP, % of control | viability (ATP), % of control | Outcome
Ifi27 | 1 | 123 | 77.3 | active
Ifi27 | 2 | 103 | 79.1 | inactive
Ifi27 | 3 | 118 | 128 | inactive
Ablim2 | 1 | 68.1 | 56.4 | inactive
Ablim2 | 2 | 65.1 | 72.4 | inactive
Ablim2 | 3 | 99.4 | 58.8 | inactive
Limd1 | 1 | 64.9 | 75.8 | inactive

Continued:
| target | reagent no. | GFP, % of control | viability (ATP), % of control | Outcome |
| --- | --- | --- | --- | --- |
| Vmn1r198 | 1 | 85.4 | 71.4 | inactive |
| Vmn1r198 | 2 | 85.9 | 55.5 | inactive |
| Vmn1r198 | 3 | 124 | 77 | active |
| Wdr25 | 1 | 59.1 | 59 | inactive |
| Wdr25 | 2 | 84 | 72.2 | inactive |
| Wdr25 | 3 | 95.2 | 102 | inactive |
| Or2y3 | 1 | 50.8 | 37.3 | inactive |
| Or2y3 | 2 | 53.5 | 45.6 | inactive |
| Or2y3 | 3 | 45.4 | 89.1 | inactive |
| Gsc | 1 | 75.4 | 81.5 | inactive |
| Gsc | 2 | 53.1 | 50.6 | inactive |
| Gsc | 3 | 104 | 95.9 | inactive |
| Rgs2 | 1 | 59.1 | 66.4 | inactive |
| Rgs2 | 2 | 51.7 | 64.3 | inactive |
| Rgs2 | 3 | 50.7 | 50.9 | inactive |
| Gpr85 | 1 | 47.1 | 44.8 | inactive |
| Gpr85 | 2 | 65.2 | 73.6 | inactive |
| Gpr85 | 3 | 80.7 | 72.1 | inactive |
| Cyp2r1 | 1 | 84.4 | 101 | inactive |
| Cyp2r1 | 2 | 91 | 103 | inactive |
| Cyp2r1 | 3 | 71.5 | 43 | inactive |
| Adh5 | 1 | 70.8 | 58.9 | inactive |
| Adh5 | 2 | 94.9 | 52.9 | inactive |
| Adh5 | 3 | 54.7 | 72.8 | inactive |
| Lrit2 | 1 | 60.5 | 66.3 | inactive |
| Lrit2 | 2 | 106 | 73.7 | inactive |
| Lrit2 | 3 | 93.5 | 103 | inactive |
| Nkx2-1 | 1 | 87.2 | 84.4 | inactive |
| Nkx2-1 | 2 | 65.9 | 99.7 | inactive |
| Mtdh | 1 | 37 | 66.7 | inactive |
| Mtdh | 2 | 46.1 | 83.4 | inactive |
| Mtdh | 3 | 89.7 | 61.8 | inactive |
